Laboratory results from PMC4605301.
These are yes or no findings as the source states them, for the method shown. For some of these results: Binding seen in cells or lysates may run through a third protein. Some results given as binding are weak or reduced against the parent protein; the word gives no strength. Each block holds one substance with its values, some of them ahead of it.

The chains behind the UniProt entries cited, without tags or fusion partners.
UniProt O15527: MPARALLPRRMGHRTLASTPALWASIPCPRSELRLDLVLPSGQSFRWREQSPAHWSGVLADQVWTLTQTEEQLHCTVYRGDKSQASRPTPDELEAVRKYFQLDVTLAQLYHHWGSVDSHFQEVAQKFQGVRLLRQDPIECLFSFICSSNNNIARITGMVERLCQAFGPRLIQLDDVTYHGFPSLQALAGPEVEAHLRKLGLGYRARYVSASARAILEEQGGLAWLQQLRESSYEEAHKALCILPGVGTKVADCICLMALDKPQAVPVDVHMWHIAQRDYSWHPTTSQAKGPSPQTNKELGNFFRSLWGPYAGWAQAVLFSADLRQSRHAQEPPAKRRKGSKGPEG

Experiments:
[1] = molecular target: human single-stranded DNA-binding protein 1 (hSSB1), endogenous (human (endogenous in U2OS)) (UniProt Q9BQ15); assay: co-IP; reciprocal immunoprecipitation with anti-hSSB1 or anti-hOGG1 antibody from U2OS cell lysates, cells treated or untreated with H2O2; protein A/G Dynabeads, washed five times in NP40 buffer (20 mM HEPES pH 8.0, 150 mM KCl, 0.2% NP40); immunoblot
[2] = molecular target: human 8-oxoguanine glycosylase 1 (hOGG1), endogenous (human (endogenous in U2OS)) (UniProt O15527); assay: as above
[3] = molecular target: T1, hSSB1 1–179 (human) (UniProt Q9BQ15); assay: pull-down; hSSB1 (full length or truncated) immobilised on cyanogen bromide-activated Sepharose 4B, incubated with 2 μg GST-hOGG1 or GST; supernatant, wash and SDS eluate on SDS-PAGE, Coomassie blue; both purified
T1 sequence: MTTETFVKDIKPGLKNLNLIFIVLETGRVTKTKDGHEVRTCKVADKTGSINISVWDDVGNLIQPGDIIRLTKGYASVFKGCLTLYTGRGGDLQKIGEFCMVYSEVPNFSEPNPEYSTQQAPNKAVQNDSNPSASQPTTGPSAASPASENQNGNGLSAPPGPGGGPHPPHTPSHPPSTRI

[4] = molecular target: T2, hSSB1 1–199 (human) (UniProt Q9BQ15); assay: as above
T2 sequence: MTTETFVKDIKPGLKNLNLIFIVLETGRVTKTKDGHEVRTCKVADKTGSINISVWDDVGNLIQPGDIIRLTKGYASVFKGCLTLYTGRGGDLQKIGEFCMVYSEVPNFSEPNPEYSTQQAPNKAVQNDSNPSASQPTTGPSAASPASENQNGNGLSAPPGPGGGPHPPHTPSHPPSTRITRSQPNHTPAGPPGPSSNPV

binding [1]: binds
Substance: human 8-oxoguanine glycosylase 1 (hOGG1), endogenous (from UniProt O15527 1-345) (enzyme)

binding [2]: binds
Substance: human single-stranded DNA-binding protein 1 (hSSB1), endogenous (from UniProt Q9BQ15 1-211)

binding [4]: binds
Substance: GST-hOGG1 wild type (from UniProt O15527 1-345) (enzyme)
binding [3]: no binding (tested: 2 μg GST-tagged hOGG1)
